In PubChem BioAssay AID1487 (National Center for Advancing Translational Sciences (NCATS), 2009):
“And” between values parts separate entries of the source, which are not always exact repeats. Identical values can stand only once. This is one part of the list. The main result of the screen is listed elsewhere. These columns were measured beside it and carry no call. Most of these compounds were active or inconclusive in the main read-out, so they are no random draw. Potencies come from curve fits of mixed quality, noted in brackets.

Test: qHTS Assay for Modulators of Lamin A Splicing
Conditions: HeLa LMNA splicing GFP/RFP minigene ratio, 48 h
Summary of the method: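 S3 HeLa stable clones carrying a lamin A-EGFP splicing minigene plus DsRed2 were seeded at 600 cells/well in Opti-MEM with 2% FBS, pin-dosed and incubated 48 h at 37°C. Acumen cytometry (488 nm) gave the GFP/RFP total-intensity ratio.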

[1] = measured here: RFP viability control channel
[2] = measured here: GFP splicing reporter channel

With `Fc1ccccc1NC(=S)N1CCN(c2ccccn2)CC1` the AC50 [1] was 35.5 µM [rising, single point].
With `COc1ccccc1-c1ccc2ncnc(NCc3cnc(C)cn3)c2c1` the AC50 [2] was 14.1 µM [falling, single point] and the AC50 [1] was 12.6 µM [falling, single point].
For `COC(=O)c1sc(NC(=S)NC(=O)c2ccc(F)cc2)nc1C`, the AC50 [2] was 0.112 µM [rising, full curve] and the AC50 [1] was 0.316 µM [rising, full curve].
For `O=c1cc2nc(-c3ccccc3)nc(SCCOc3ccc(Cl)cc3)n2[nH]1`, the AC50 [2] was 0.178 µM [falling, full curve, poor fit] and the AC50 [1] was 0.224 µM [falling, full curve, poor fit].
For `CC(C)Oc1ccccc1C1CC(=O)Nc2cc3c(cc21)OCO3` (centres undefined), the AC50 [2] was 3.98 µM [rising, full curve] and the AC50 [1] was 3.98 µM [rising, full curve].
With `Cn1ccnc1C1CCCCN1C(=O)c1cc(COc2ccc(F)cc2Cl)on1` (centres undefined) the AC50 [2] was 0.0631 µM [falling, full curve, poor fit] and the AC50 [1] was 0.0447 µM [falling, full curve, poor fit].
In the case of `c1cnc2c(c1)ccc1cccnc12`, the AC50 [2] is reported as 14.1 µM [rising, single point] and 794 nM [rising, full curve] and 20 µM [falling, partial curve] and the AC50 [1] is reported as 12.6 µM [rising, partial curve] and 11.2 µM [rising, partial curve] and 5.01 nM [falling, full curve, poor fit].
In the case of `CCc1ccccc1NC(=O)Nc1cc(C(=O)NCc2ccccc2OC)ccc1N1CCCC1`, the AC50 [2] is reported as 35.5 µM [falling, single point].
With `CCCc1n(CC(O)COCC2CC=CCC2)c2ccccc2[n+]1C` (centres undefined) the AC50 [1] was 8.91 µM [falling, single point].
For `Cc1nn(-c2ccc(Cl)cc2Cl)c(C)c1C(=O)O`, the AC50 [1] was 4.47 µM [rising, full curve].
With `Cc1cc(NC(=O)CSc2nc3ccccc3c(=O)n2Cc2ccccc2)no1` the AC50 [1] was 2.51 µM [rising, partial curve, poor fit].
In the case of `COc1ccccc1N=Nc1nc(-c2ccccc2)c(-c2ccccc2)[nH]1`, the AC50 [2] is reported as 35.5 µM [rising, single point] and the AC50 [1] is reported as 35.5 µM [rising, single point].
In the case of `CCOc1ccc(C2=Nn3c(nnc3-c3ccccc3OC)SC2)cc1`, the AC50 [2] is reported as 0.0501 µM [falling, full curve] and the AC50 [1] is reported as 0.0562 µM [falling, full curve].
In the case of `Cc1ccccc1Nc1c(-c2ccncc2)nc2ccc(Br)cn12`, the AC50 [1] is reported as 14.1 µM [rising, single point].
In the case of `COC(=O)N1C2CC(=O)O[C@@H]3c4cc5c(cc4[C@]1(C)[C@@]3(Br)c1ccccc12)OCO5`, the AC50 [1] is reported as 2 µM [rising, partial curve].
In the case of `CCc1nnc(NC(=O)CSc2nc3c([nH]c4ccccc43)c(=O)n2-c2ccc(F)cc2)s1`, the AC50 [1] is reported as 35.5 µM [falling, single point].
For `CCOC(=O)c1cc(-c2ccc(N3CCOCC3)cc2)nn1-c1ccccc1`, the AC50 [1] was 22.4 µM [rising, single point].
In the case of `CCOc1ccc(OCCSc2nc3ccccc3[nH]2)cc1`, the AC50 [2] is reported as 2.51 µM [falling, partial curve, poor fit] and the AC50 [1] is reported as 11.2 µM [rising, partial curve].
With `COc1ccc(C(=O)NCc2nnc(SCC(=O)c3ccccc3)n2C)cc1` the AC50 [2] was 0.1 µM [falling, full curve, poor fit] and the AC50 [1] was 0.355 µM [falling, full curve, poor fit].
In the case of `Cc1cccn2c(=O)cc(COc3ccc(NC(=O)C(C)C)cc3)nc12`, the AC50 [2] is reported as 0.562 µM [rising, full curve, poor fit].
For `Cc1cc(C)nc(/N=C2\NC(=O)CC(C(=O)O)N2c2ccc(Cl)cc2Cl)n1` (centres undefined), the AC50 [2] was 0.794 µM [rising, full curve, poor fit].
With `Cc1ccc(C(=O)Nc2cccc([N+](=O)[O-])c2)cc1S(=O)(=O)Nc1ccc(NC(=O)c2ccccc2)cc1` the AC50 [2] was 15.8 µM [rising, single point] and the AC50 [1] was 10 µM [rising, single point].
For `Cc1ccccc1NC(=O)CSc1nc2ccc(NC(=O)CCc3ccccc3)cc2s1`, the AC50 [1] was 20 µM [falling, partial curve, poor fit].
With `Nc1cc(-c2cccc([N+](=O)[O-])c2)[nH]n1` the AC50 [1] was 2.24 µM [rising, partial curve].
With `N#CCCn1c(=O)c(-c2ccc(Cl)cc2)nc2cnc(Nc3ccccc3)nc21` the AC50 [2] was 12.6 µM [falling, single point] and the AC50 [1] was 10 µM [falling, partial curve].
With `Cc1c(C)n(CC(O)CN2CCCCCC2)c2ccccc12` (centres undefined) the AC50 [1] was 5.62 µM [rising, single point].
For `CCn1nnc(NC(=O)COc2ccc(C3CCCCC3)cc2)n1`, the AC50 [1] was 31.6 µM [rising, single point].
With `CN1CCc2cccc3c2[C@H]1Cc1ccc(O)c(O)c1-3` the AC50 [2] was 25.1 µM [falling, partial curve] and 35.5 µM [falling, single point] and the AC50 [1] was 28.2 µM [falling, partial curve] and 35.5 µM [falling, single point].
In the case of `CCCNC(=O)Cn1nc(-c2ccc(C)c(C)c2)c2cnc3ccc(OC)cc3c21`, the AC50 [2] is reported as 25.1 µM [falling, partial curve, poor fit].
For `COc1ccc(CNC(=O)COC(=O)c2c(-c3c(F)cccc3Cl)noc2C)cc1OC`, the AC50 [2] was 35.5 µM [rising, single point] and the AC50 [1] was 22.4 µM [rising, single point].
In the case of `O=S(=O)(NCCOc1ccc(F)cc1)c1ccc2c(c1)OCCO2`, the AC50 [2] is reported as 35.5 µM [rising, single point].
In the case of `CCOC(=O)c1ccc(OC(=O)c2cn(-c3ccc(C)cc3)c(=O)c3ccccc23)cc1`, the AC50 [2] is reported as 14.1 µM [falling, partial curve] and the AC50 [1] is reported as 3.16 µM [falling, partial curve].
For `COc1cccc(-c2nccc(NCc3ccc(OC)cc3OC)n2)c1`, the AC50 [2] was 12.6 µM [falling, partial curve] and the AC50 [1] was 15.8 µM [falling, partial curve, poor fit].
With `O=C(c1c(F)cccc1F)N1CCCC1` the AC50 [1] was 20 µM [rising, single point].
With `CCn1nc(C(=O)OCC(=O)c2cc(C)n(Cc3cccs3)c2C)c2ccccc2c1=O` the AC50 [2] was 22.4 µM [rising, single point] and the AC50 [1] was 22.4 µM [rising, single point].
With `O=C(Nc1ccccc1-c1nnn(CC(=O)N2CCCc3ccccc32)n1)c1ccco1` the AC50 [2] was 6.31 µM [rising, partial curve, poor fit].
With `CCCCCOC(=O)Nc1nc(=O)n(C2O[C@H](C)[C@@H](O)[C@@H]2O)cc1F` (some centres undefined) the AC50 [2] was 35.5 µM [falling, single point] and the AC50 [1] was 0.708 µM [rising, full curve, poor fit].
For `COc1ccc(-n2nc(C(=O)NCC(=O)N3CCN(c4ccccn4)CC3)c3ccccc3c2=O)cc1OC`, the AC50 [1] was 31.6 µM [rising, single point].
For `CCCn1c(SCCN2C(=O)c3ccccc3C2=O)n[nH]c1=O`, the AC50 [1] was 0.0126 µM [falling, full curve, poor fit].
In the case of `CSc1nc(N)nc(SCC(=O)C23CC4CC(CC(C4)C2)C3)c1C#N`, the AC50 [2] is reported as 11.2 µM [rising, partial curve, poor fit] and the AC50 [1] is reported as 8.91 µM [rising, partial curve].
For `CCC(NC(C)C)C(O)c1ccc(O)c(O)c1` (centres undefined), the AC50 [2] was 11.2 µM [falling, partial curve] and 14.1 µM [rising, single point] and the AC50 [1] was 22.4 µM [falling, single point].
For `Cn1cc(S(=O)(=O)N2CCCCCC2)cc1C(=O)N1CCN(c2ccccc2F)CC1`, the AC50 [1] was 0.0501 µM [rising, full curve, poor fit].
In the case of `CSc1ccccc1NC(=O)CN(Cc1ccc(Cl)cc1)S(C)(=O)=O`, the AC50 [2] is reported as 14.1 µM [rising, single point] and the AC50 [1] is reported as 35.5 µM [rising, single point].
In the case of `N#C/C(=C\c1cccs1)Sc1nc2ccccc2s1`, the AC50 [1] is reported as 25.1 µM [rising, partial curve].
With `CCc1ccc(/C=N/NC(=S)NCCc2ccccc2)cc1` the AC50 [1] was 0.708 µM [falling, full curve, poor fit].
In the case of `Cc1ccccc1Oc1nc2ccccn2c(=O)c1/C=C(\C#N)C(=O)Nc1c(C)n(C)n(-c2ccccc2)c1=O`, the AC50 [1] is reported as 0.447 µM [rising, full curve].
For `COc1ccc(-c2noc(C3CCCN(S(=O)(=O)c4cccc(Cl)c4C)C3)n2)cc1OC` (centres undefined), the AC50 [2] was 11.2 µM [rising, partial curve, poor fit] and the AC50 [1] was 17.8 µM [rising, partial curve].
For `COc1cc(NS(=O)(=O)c2ccc3c(c2)CC(C)N3C(=O)C2CCC2)cc(OC)c1OC` (centres undefined), the AC50 [2] was 0.0398 µM [falling, full curve, poor fit] and the AC50 [1] was 0.0562 µM [falling, partial curve].
In the case of `Cc1ccc(CN2C3CCCC2CC(NC(=O)c2ccc(C)cc2)C3)cc1` (centres undefined), the AC50 [2] is reported as 6.31 µM [falling, partial curve, poor fit].
For `N=C(N)c1ccc(O)cc1`, the AC50 [2] was 17.8 µM [falling, single point] and the AC50 [1] was 22.4 µM [falling, partial curve, poor fit].
